Data: PubChem BioAssay AID376 (PDSP, 2006)
What follows is the remainder of the data, with few or none of the hits. Active and inactive are the calls of the source. Cut-off read from the data, not from the text of the source: active = hERG blockade below about -20% or above about 20%; inactive = in between.

Amino acid sequences for entries named in this document (tags omitted). A change or cut given only in a name is not applied to a line headed by its entry.
UniProt Q12809: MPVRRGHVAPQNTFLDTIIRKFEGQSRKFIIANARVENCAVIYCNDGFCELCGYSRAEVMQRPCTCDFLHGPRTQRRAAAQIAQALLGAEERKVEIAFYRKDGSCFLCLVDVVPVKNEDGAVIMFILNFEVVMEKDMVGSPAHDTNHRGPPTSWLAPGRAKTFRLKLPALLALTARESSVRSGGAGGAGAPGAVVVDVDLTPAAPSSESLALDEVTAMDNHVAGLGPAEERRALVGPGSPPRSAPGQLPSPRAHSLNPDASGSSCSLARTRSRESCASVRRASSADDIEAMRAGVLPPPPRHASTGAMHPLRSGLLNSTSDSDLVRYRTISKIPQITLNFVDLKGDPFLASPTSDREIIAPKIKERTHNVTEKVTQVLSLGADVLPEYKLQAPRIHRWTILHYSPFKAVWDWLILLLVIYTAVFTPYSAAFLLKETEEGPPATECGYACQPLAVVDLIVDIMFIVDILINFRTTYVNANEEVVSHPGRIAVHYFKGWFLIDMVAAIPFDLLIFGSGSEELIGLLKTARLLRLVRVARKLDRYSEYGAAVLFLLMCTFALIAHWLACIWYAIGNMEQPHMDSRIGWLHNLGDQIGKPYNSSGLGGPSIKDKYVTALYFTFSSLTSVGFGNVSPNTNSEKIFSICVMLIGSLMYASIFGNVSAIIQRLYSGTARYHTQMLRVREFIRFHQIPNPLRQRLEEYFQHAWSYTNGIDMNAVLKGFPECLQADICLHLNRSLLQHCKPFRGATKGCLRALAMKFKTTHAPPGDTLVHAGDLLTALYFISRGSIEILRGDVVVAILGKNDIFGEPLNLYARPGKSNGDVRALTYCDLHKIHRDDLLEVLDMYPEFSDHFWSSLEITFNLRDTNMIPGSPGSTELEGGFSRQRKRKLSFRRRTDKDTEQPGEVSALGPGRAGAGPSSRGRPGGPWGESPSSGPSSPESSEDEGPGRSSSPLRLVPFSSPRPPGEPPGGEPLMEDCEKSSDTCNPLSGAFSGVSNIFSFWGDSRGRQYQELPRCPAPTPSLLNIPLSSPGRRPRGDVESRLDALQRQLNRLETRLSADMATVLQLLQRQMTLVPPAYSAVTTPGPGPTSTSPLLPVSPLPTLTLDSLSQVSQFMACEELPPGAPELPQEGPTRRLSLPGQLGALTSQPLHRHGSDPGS

Target: Voltage-gated inwardly rectifying potassium channel KCNH2 (Homo sapiens) (UniProt Q12809)
Experiment: KCNH2 potassium channel function modulators, cell-based (AID 376);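 note: 0% = buffer alone and 100% = reference blocker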
Conditions: hERG-expressing cells, channel activity single-concentration screen; concentration not given here

Q: `NCCCC(N)C(=O)O` (stereo not drawn) was tested. Which hERG blockade did it give?
A: The hERG blockade was inactive: -9.77%.

Q: Which hERG blockade does the source give for `O=S(=O)(c1ccccc1)N1CCN(S(=O)(=O)c2ccccc2)c2ccccc21` here?
A: The hERG blockade was inactive: 4.5%.

Q: With `O=C1c2cccc(O)c2C(=O)c2c(OC3OC(CO)C(O)C(O)C3O)cccc21` (stereo not drawn) as the compound, how does the hERG blockade read?
A: The hERG blockade was inactive: 11.3%.
